# Data published in PubChem BioAssay AID2685 (National Center for Advancing Translational Sciences (NCATS), 2010).
# The list shows a part of the results. Further columns of the screen follow, without active or inactive calls. The list favours compounds with an active or inconclusive main result. The note in brackets gives the kind of curve behind each potency; many fits are weak.
# Test: qHTS Assay for Lipid Storage Modulators in Drosophila S3 Cells;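 as to cell number change: cells counted by Cell Tracker Red CMTPX staining in the red channel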
# Details: BODIPY lipid droplet fluorescence, 18-24 h; for cell number change: measured here: cell count max response, cells fed with added oleic acid
# Outline: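 Laser-scanning cytometry quantifies lipid droplet accumulation (500–530 nm total intensity; droplet/cell object ratio) in oleic acid-fed (400 uM added) Drosophila S3 cells treated with a concentration series. 20 uM Triacsin C defined 100% inhibition.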
# [1] = measured here: lipid fluorescence (Fed channel) AC50, cells fed with added oleic acid
# [2] = measured here: cell number channel AC50, cells fed with added oleic acid
structure (smiles),measurement,setting,value
Cn1c(=O)cc(OCC(=O)N2CCN(C3CCCCC3)CC2)c2ccccc21,AC50,[1],"2.59 µM [rising, single point]"
O=C(NCCN1CCOCC1)c1ccc(Cl)nc1Cl,cell number change,,37.9%
same,AC50,[2],"1.46 µM [rising, full curve]"
Cc1cc(Br)ccc1N1C(=O)CC(=O)NC1=O,cell number change,,4.51%
CN1C[C@H](CO)C[C@@H]2c3cccc4[nH]cc(c34)C[C@H]21,cell number change,,34.7%
same,AC50,[2],"4.11 µM [rising, full curve]"
CCOc1cc2c(cc1OCC)-n1cccc1C(c1cccc([N+](=O)[O-])c1)NC2 (stereo not drawn),cell number change,,-18.4%
same,AC50,[1],"29.1 µM [rising, single point]"
CCOP(=O)(Cc1ccccc1)OCC,cell number change,,-9.95%
same,AC50,[1],"2.31 µM [rising, single point]"
O=[N+]([O-])c1cc2c(cc1CNCCc1ccc3c(c1)OCO3)OCO2,cell number change,,7.74%
same,AC50,[1],"5.8 µM [rising, partial curve]"
CN1CCC(OC(=O)C2c3ccccc3Oc3ccccc32)CC1,cell number change,,0.897%
same,AC50,[1],"23.1 µM [falling, single point]"
CN(C)c1nc(N(C)C)nc(N(C#N)CCCl)n1,cell number change,,-36.7%
same,AC50,[2],"32.6 µM [falling, single point]"
COC(=O)C1=C(c2ccc(F)cc2F)C[C@@H]2CC[C@H]1N2C(=O)N1CCCC1,cell number change,,-13.2%
CCOC(=O)c1c(C)n(COCCO)c2ccc(O)cc12,cell number change,,-12.7%
same,AC50,[1],"5.8 µM [rising, partial curve, poor fit]"
CCn1c(O)c(C(=O)CC2NCCc3ccccc32)c(=O)n(CC)c1=S (stereo not drawn),cell number change,,-0.203%
same,AC50,[1],"0.366 µM [rising, partial curve]"
Cc1cc(OC(=O)CCNC(=O)OC(C)(C)C)c2c3c(c(=O)oc2c1)CCC3,cell number change,,-19.3%
same,AC50,[1],"16.4 µM [falling, single point]"
COc1cccc(N2CCN(Cc3cccc(Cl)c3)CC2)c1,cell number change,,-8.16%
same,AC50,[1],"0.00461 µM [rising, full curve, poor fit]"
Cc1cc(C(=O)OCC(=O)Nc2ccc(F)cc2F)c(C)n1C1CC1,cell number change,,-5.54%
O=C(O)CCCCC1SCC2NC(=O)NC21 (stereo not drawn),AC50,[2],"6.51 µM [falling, full curve]"
CCOC(=O)C1C(=O)N(C)C2(C)CC1c1ccccc1O2 (stereo not drawn),cell number change,,7.6%
same,AC50,[1],"20.6 µM [falling, partial curve, poor fit]"
CCOC(=O)C1(CCOc2ccccc2)CCN(Cc2cccc(O)c2)CC1,cell number change,,-0.676%
same,AC50,[1],"11.6 µM [falling, single point]"
COc1ccc(C(=O)CC2(CC(=O)c3ccc(OC)cc3)C(=O)N(C)C(=O)N(C)C2=O)cc1,cell number change,,20.9%
same,AC50,[1],"6.51 µM [falling, partial curve]"
Cc1nn(Cc2ccc(Cl)cc2Cl)c(Cl)c1C(=O)Nc1ccc(OC(F)F)cc1,cell number change,,-40.4%
same,AC50,[2],"32.6 µM [falling, single point]"
same,AC50,[1],"0.116 µM [rising, full curve, poor fit]"
COC(=O)c1ccc(N2C(=O)CC(N3CCC(n4c(=O)[nH]c5ccccc54)CC3)C2=O)cc1 (stereo not drawn),cell number change,,-19.7%
same,AC50,[1],"0.517 µM [rising, single point]"
C/C=C1/C[C@@H](C)[C@](O)(CO)C(=O)OCC2=CCN3CC[C@@H](OC1=O)[C@@H]23,cell number change,,36.6%
same,AC50,[1],"29.1 µM [rising, single point]"
COc1ccc(OCC(=O)N2CCCC(N3CCN(c4ccccc4C)CC3)C2)cc1 (stereo not drawn),cell number change,,21.5%
same,AC50,[2],"0.411 µM [rising, full curve]"
same,AC50,[1],"6.51 µM [rising, single point]"
O=c1[nH]c(=O)n(-c2cccc(F)c2)c(O)c1/C=C1\C=Nc2ccccc21,cell number change,,18.1%
O=C(Nc1cccc(OC(=O)N2CCCCC2)c1)N1CCCCC1,cell number change,,15.5%
same,AC50,[1],"13 µM [rising, partial curve, poor fit]"
Cn1c(O)c(C(=O)c2ccccc2Cl)c(=O)n(C)c1=O,cell number change,,-0.471%
same,AC50,[1],"2.06 µM [rising, partial curve, poor fit]"
COc1ccc(S(=O)(=O)NC(CC(=O)N2CCC3(CC2)OCCO3)C(C)C)cc1 (stereo not drawn),cell number change,,7.3%
CCn1cc(C(=O)NCc2ccccc2)c2ccccc21,cell number change,,20.9%
same,AC50,[1],"29.1 µM [rising, single point]"
CC1=C(C(=O)N2CCC3(CC2)OCCO3)C2(CCC(C)CC2)OC1=O (stereo not drawn),AC50,[2],"1.46 µM [falling, partial curve]"
Cc1cc(=O)[nH]c(SCc2nc3ccccc3c(=O)n2-c2ccccc2C)n1,cell number change,,10.8%
same,AC50,[2],"6.51 µM [falling, single point]"
same,AC50,[1],"5.8 µM [falling, single point]"
CCCCCn1c(=O)c(C(=O)NCc2ccncc2)c(O)c2ccccc21,cell number change,,18.6%
same,AC50,[2],"0.146 µM [rising, full curve, poor fit]"
same,AC50,[1],"3.66 µM [rising, single point]"
CCCOP(=O)(O)c1c([N+](=O)[O-])cc(C(F)(F)F)cc1[N+](=O)[O-] (tested in a mixture with another compound),cell number change,,6.5%
same,AC50,[2],"4.11 µM [falling, partial curve]"
same,AC50,[1],"7.31 µM [falling, partial curve]"
CC1CCCCN1CC(O)c1c[nH]c2ccccc12 (stereo not drawn),cell number change,,12.6%
same,AC50,[1],"0.0517 µM [rising, full curve, poor fit]"
Cc1cccc(OC(=O)N2CCOCC2)c1,cell number change,,34.1%
same,AC50,[2],"7.31 µM [rising, partial curve, poor fit]"
Cc1cc(/C=C2/C(=O)NC(=O)N(c3ccc(Br)cc3)C2=O)c(C)n1C,cell number change,,17.6%
c1ccc(SSc2ccccc2)cc1,AC50,[2],"16.4 µM [falling, single point]"
Clc1ccc(-c2nc3ccc(Cl)cn3c2CN2CCCCC2)cc1,cell number change,,-30.8%
same,AC50,[1],"32.6 µM [falling, single point]"
CCN(CC)CCN=Cc1c(O)n(C2CCCCCC2)c(=O)[nH]c1=O,AC50,[1],"4.11 µM [falling, partial curve]"
Cc1cccc(N2CCN(Cc3ccc4c(c3)OCO4)CC2)c1C,cell number change,,-17%
same,AC50,[1],"29.1 µM [rising, single point]"
C[C@H]1O[C@@H](O[C@H]2[C@@H](O)C[C@H](O[C@H]3[C@@H](O)C[C@H](O[C@H]4CC[C@@]5(C)[C@H](CC[C@@H]6[C@@H]5CC[C@]5(C)[C@@H](C7=CC(=O)OC7)CC[C@]65O)C4)O[C@@H]3C)O[C@@H]2C)C[C@H](O)[C@@H]1O,cell number change,,7.85%
same,AC50,[1],"6.51 µM [falling, partial curve, poor fit]"
O=P1(NCc2ccco2)COc2ccccc2OC1,cell number change,,-3.16%
same,AC50,[1],"6.51 µM [falling, single point]"
Cc1cc(NC(=O)COC(=O)c2c(C)nn(Cc3ccccc3Cl)c2Cl)no1,cell number change,,4.5%
same,AC50,[2],"0.082 µM [rising, full curve, poor fit]"
Cc1ccc(OCC(=O)N2CCN(Cc3cccnc3)CC2)cc1,cell number change,,18.1%
same,AC50,[1],"18.4 µM [rising, partial curve, poor fit]"
COC(=O)C1=C(c2c(C)noc2C)C[C@@H]2CC[C@H]1N2C(=O)NCCNC(C)=O,cell number change,,-23.3%
COc1ccccc1N1CCN(Cc2ccc(SC)cc2)CC1,cell number change,,-8.5%
CCCCOc1nc2ccccc2c(=O)n1-c1ccccc1,cell number change,,47.4%
same,AC50,[2],"14.6 µM [rising, partial curve, poor fit]"
O=P(O)(O)C12CC3CC(CC(C3)C1)C2,cell number change,,-62.6%
same,AC50,[2],"6.51 µM [falling, full curve]"
same,AC50,[1],"5.17 µM [falling, full curve]"
COC(=O)C1=C(c2ccc(OC)c(OC)c2)C[C@@H]2CC[C@H]1N2C(=O)NCc1ccc(F)cc1,cell number change,,-10.2%
same,AC50,[1],"6.51 µM [rising, single point]"
CC(C)Cc1nnc(NC(=O)CCC(=O)N2CCN(CCOC(c3ccccc3)c3ccccc3)CC2)s1,cell number change,,-10.9%
same,AC50,[1],"32.6 µM [falling, single point]"
CCN(CC)c1ccc(N=Cc2c(O)n(-c3ccc(OC)cc3)c(=O)[nH]c2=O)cc1,cell number change,,37.2%
same,AC50,[2],"2.06 µM [rising, partial curve]"
same,AC50,[1],"20.6 µM [rising, single point]"
O=C(CN1CC(c2ccccc2)CC1=O)Nc1cccc(F)c1 (stereo not drawn),cell number change,,3.19%
same,AC50,[1],"5.8 µM [rising, partial curve]"
COCCCNC(=O)Cn1cc(/C=C2\C(=O)NC(=O)N(c3ccccc3F)C2=O)c2ccccc21,cell number change,,-8.33%
COc1ccc(C(=O)c2nc3ccccc3n2C(C)C)cc1,cell number change,,22.5%
same,AC50,[1],"29.1 µM [rising, single point]"
Clc1cccc(Cl)c1Cl,cell number change,,16.6%
same,AC50,[1],"11.6 µM [rising, single point]"
COc1ccc(-c2cc(C(=O)N3CCC4(CC3)OCCO4)c3ccccc3n2)cc1,cell number change,,13.2%
same,AC50,[2],"0.92 µM [falling, partial curve]"
same,AC50,[1],"6.51 µM [falling, single point]"
COc1cc2c(cc1OC)[C@@H]1C(=O)c3ccc4c(c3O[C@@H]1CO2)C[C@H](C(C)C)O4,cell number change,,-42.5%
same,AC50,[2],"0.103 µM [falling, full curve]"
same,AC50,[1],"0.082 µM [falling, full curve]"
CN(C)c1ccc(/C=C/[N+](=O)[O-])cc1,cell number change,,-47.4%
same,AC50,[2],"18.4 µM [falling, partial curve]"
same,AC50,[1],"20.6 µM [falling, partial curve]"
CCN(CC)c1ccccc1,cell number change,,7.05%
O=c1c2ccccc2nc(-c2ccco2)n1-c1ccc(Br)cn1,cell number change,,6.65%
same,AC50,[1],"29.1 µM [rising, single point]"

# 7 records drawn at random from those above:
structure (smiles),measurement,setting,value
COc1ccc(OCC(=O)N2CCCC(N3CCN(c4ccccc4C)CC3)C2)cc1 (stereo not drawn),AC50,[2],"0.411 µM [rising, full curve]"
CC1CCCCN1CC(O)c1c[nH]c2ccccc12 (stereo not drawn),cell number change,,12.6%
COc1ccc(-c2cc(C(=O)N3CCC4(CC3)OCCO4)c3ccccc3n2)cc1,cell number change,,13.2%
O=C(NCCN1CCOCC1)c1ccc(Cl)nc1Cl,cell number change,,37.9%
COc1ccc(C(=O)CC2(CC(=O)c3ccc(OC)cc3)C(=O)N(C)C(=O)N(C)C2=O)cc1,cell number change,,20.9%
Cc1cc(=O)[nH]c(SCc2nc3ccccc3c(=O)n2-c2ccccc2C)n1,cell number change,,10.8%
CN1CCC(OC(=O)C2c3ccccc3Oc3ccccc32)CC1,AC50,[1],"23.1 µM [falling, single point]"
